Measurements: PMC11316025
No constants are given. Whether binding was seen depends on the method and setting. For part of these data: Binding can be weak; no strength is given. For part of these data: In cells and extracts the contact can be indirect. For part of these data: Sequences can lack the tags named with a protein. Values belong to the substance of their own block, whether it stands above or below them.

Protein sequences, listed by entry. Tags and fused reporters are not part of them. Lines headed by an entry give the natural chain unless they say otherwise; changes in a name come on top. Residues count along the entry.
UniProt Q8WWW0: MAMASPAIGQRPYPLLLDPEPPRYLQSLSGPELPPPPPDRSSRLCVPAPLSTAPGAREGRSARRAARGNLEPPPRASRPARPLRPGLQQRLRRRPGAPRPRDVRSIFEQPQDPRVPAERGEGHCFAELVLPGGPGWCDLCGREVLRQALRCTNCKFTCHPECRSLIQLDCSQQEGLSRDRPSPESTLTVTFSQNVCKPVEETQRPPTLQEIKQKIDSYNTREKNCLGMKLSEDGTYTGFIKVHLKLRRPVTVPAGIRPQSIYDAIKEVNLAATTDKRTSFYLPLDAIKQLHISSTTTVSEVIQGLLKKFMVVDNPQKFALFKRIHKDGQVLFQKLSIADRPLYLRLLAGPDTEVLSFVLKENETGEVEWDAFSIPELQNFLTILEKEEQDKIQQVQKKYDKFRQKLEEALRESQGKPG
UniProt Q8IXI2, residues 1-180: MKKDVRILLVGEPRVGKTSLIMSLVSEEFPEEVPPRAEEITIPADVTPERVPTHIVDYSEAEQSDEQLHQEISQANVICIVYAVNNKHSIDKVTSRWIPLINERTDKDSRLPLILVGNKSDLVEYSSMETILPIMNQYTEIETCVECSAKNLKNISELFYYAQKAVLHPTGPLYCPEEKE
UniProt Q8IXI1, residues 1-180: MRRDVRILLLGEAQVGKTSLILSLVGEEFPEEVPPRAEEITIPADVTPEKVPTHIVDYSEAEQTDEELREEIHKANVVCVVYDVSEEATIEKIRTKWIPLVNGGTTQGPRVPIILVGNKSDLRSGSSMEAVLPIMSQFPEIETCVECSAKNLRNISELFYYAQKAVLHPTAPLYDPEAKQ
UniProt P10301: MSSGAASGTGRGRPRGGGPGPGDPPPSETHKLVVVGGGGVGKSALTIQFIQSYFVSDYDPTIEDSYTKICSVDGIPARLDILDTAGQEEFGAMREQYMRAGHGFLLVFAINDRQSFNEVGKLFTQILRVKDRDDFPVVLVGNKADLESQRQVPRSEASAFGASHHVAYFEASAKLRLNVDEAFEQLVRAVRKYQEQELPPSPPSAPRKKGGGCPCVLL
UniProt P36405: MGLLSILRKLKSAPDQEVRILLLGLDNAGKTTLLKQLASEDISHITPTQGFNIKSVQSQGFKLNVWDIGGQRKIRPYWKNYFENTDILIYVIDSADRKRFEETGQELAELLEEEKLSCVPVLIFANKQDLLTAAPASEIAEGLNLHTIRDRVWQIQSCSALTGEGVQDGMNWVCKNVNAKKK
UniProt P56559: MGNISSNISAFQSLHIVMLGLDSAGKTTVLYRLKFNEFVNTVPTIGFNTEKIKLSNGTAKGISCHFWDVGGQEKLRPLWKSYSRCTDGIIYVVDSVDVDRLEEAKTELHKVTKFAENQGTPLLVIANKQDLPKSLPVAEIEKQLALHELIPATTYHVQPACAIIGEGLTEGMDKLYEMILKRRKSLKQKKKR
UniProt Q96KC2: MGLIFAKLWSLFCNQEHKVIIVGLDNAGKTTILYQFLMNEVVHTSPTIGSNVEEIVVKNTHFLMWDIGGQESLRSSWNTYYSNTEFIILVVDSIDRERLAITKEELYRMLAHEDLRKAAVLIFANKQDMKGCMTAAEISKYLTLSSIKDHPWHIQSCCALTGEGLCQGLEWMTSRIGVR
UniProt A6NH57: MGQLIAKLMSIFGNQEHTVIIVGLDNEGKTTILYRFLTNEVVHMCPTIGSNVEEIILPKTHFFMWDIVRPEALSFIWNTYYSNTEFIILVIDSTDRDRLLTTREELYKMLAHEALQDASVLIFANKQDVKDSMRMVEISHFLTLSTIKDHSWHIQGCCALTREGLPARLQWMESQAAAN
UniProt Q8N8L6: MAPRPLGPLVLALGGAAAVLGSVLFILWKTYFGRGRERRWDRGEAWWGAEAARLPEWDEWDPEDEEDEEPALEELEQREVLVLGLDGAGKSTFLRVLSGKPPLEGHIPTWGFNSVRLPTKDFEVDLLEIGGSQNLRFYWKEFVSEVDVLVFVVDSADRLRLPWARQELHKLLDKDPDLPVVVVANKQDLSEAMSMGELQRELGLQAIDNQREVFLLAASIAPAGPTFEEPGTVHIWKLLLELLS
UniProt Q969Q4: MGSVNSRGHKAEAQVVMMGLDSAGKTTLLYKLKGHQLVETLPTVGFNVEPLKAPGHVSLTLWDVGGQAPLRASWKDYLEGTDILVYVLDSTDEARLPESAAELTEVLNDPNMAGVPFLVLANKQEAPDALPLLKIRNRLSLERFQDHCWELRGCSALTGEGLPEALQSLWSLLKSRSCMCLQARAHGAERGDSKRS
UniProt Q3SXY8: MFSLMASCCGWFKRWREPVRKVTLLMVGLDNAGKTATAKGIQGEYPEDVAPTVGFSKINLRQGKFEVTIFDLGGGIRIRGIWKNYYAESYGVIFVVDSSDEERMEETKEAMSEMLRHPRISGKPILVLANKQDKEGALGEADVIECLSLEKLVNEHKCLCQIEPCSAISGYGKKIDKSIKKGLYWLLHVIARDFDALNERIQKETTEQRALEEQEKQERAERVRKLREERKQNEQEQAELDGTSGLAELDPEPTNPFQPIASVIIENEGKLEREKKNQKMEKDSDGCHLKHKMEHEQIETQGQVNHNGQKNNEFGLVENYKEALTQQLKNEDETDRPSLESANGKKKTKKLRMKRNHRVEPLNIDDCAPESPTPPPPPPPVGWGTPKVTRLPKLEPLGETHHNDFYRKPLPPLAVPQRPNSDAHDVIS
UniProt Q9NXU5: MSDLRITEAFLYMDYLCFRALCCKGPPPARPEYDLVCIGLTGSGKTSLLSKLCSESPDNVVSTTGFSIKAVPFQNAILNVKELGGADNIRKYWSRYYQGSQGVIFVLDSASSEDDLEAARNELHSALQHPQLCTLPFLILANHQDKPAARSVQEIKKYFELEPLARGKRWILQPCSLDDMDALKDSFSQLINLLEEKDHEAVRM
UniProt O95057: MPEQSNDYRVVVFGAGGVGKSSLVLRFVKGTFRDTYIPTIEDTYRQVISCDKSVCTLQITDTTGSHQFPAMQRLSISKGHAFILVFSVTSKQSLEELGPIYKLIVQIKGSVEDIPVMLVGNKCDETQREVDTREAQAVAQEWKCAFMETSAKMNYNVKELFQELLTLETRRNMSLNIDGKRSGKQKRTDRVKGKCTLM
UniProt P55040: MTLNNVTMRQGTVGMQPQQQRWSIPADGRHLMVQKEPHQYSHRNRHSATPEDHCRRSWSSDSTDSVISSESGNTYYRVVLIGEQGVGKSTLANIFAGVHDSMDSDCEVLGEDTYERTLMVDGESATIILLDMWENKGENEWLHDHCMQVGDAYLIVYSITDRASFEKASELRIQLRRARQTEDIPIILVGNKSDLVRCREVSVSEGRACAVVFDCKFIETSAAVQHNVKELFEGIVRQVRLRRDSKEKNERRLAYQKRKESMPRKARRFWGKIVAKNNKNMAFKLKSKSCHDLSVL
UniProt Q9NYR9: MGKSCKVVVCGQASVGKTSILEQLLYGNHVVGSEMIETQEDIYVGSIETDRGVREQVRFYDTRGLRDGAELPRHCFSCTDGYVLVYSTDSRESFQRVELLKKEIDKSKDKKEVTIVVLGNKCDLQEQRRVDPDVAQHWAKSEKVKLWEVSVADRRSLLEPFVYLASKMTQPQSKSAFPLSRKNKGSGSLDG
UniProt Q96D21: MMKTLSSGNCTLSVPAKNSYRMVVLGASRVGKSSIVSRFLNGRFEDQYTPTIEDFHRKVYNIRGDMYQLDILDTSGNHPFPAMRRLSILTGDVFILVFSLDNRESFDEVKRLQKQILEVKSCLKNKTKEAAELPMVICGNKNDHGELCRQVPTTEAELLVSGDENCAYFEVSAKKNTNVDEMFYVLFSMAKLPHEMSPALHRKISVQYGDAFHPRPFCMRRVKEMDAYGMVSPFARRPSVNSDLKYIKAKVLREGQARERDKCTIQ
UniProt Q92737: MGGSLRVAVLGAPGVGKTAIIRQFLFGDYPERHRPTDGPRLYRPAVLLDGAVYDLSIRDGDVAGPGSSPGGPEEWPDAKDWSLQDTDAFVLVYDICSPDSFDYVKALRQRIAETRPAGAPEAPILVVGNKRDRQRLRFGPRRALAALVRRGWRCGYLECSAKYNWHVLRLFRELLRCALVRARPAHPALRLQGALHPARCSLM
UniProt Q96S79: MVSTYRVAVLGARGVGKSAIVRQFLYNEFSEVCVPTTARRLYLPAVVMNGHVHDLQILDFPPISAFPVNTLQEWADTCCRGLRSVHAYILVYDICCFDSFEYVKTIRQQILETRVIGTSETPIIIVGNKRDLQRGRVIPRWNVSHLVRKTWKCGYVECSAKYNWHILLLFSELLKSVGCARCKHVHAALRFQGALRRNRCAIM
UniProt Q9NYN1: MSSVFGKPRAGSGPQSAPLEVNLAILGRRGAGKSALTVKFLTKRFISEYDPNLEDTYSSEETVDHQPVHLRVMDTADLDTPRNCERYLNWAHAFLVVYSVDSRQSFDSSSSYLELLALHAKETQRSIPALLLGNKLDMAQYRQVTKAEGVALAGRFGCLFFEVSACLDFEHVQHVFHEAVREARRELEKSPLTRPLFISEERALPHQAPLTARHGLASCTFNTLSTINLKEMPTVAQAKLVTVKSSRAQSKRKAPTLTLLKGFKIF
UniProt O75628: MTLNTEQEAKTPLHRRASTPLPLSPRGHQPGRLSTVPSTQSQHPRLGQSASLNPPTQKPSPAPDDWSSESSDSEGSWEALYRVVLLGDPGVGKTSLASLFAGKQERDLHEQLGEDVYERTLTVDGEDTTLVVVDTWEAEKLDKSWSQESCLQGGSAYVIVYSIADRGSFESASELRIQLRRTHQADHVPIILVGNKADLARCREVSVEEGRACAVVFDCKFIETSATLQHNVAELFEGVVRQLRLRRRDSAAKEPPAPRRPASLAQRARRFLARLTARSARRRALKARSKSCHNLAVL
UniProt Q8IYK8: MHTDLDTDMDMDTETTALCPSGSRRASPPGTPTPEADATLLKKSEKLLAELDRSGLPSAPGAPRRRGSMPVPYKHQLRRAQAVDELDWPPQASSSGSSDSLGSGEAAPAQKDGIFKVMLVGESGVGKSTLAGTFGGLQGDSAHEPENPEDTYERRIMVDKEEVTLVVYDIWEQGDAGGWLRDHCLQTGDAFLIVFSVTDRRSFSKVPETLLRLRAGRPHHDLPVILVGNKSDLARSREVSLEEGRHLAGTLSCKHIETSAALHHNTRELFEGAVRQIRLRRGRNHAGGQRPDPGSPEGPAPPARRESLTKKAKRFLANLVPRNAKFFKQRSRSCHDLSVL
UniProt Q9HBH0: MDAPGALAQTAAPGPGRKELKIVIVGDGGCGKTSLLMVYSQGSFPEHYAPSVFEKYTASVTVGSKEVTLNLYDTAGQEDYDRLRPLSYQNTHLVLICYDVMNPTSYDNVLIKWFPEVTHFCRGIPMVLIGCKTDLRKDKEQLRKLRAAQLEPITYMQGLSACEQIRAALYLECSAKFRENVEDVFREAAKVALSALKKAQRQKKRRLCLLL
UniProt P55042: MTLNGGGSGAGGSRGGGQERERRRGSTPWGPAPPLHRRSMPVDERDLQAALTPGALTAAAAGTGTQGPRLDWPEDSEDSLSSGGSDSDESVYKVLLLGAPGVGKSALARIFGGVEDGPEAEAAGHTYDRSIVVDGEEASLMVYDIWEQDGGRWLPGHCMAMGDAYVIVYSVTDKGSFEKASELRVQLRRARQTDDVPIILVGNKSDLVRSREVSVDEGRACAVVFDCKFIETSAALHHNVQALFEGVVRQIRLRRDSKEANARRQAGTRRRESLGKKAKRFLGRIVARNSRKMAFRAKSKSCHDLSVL

Assays:
[1] = target: GST-tagged RASSF3 RA domain (human) (UniProt Q86WH2); assay: pull-down; in vitro mixing: 10 µM purified GST-tagged RASSF RA domain (or GST alone) on glutathione beads incubated 2 h with 50 µM purified 6xHis-GTPase, unexchanged or exchanged with GDP, GMPPNP, GTPγS or GTP; three washes; SDS-PAGE; both purified
[2] = target: GST-tagged RASSF4 RA domain (human) (UniProt Q9H2L5); assay: as above
[3] = target: GST-tagged RASSF8 RA domain (human) (UniProt Q8NHQ8); assay: as above
[4] = target: T1, full-length FLAG-RASSF3 (human) (UniProt Q86WH2); assay: co-IP; HEK 293T co-transfected with FLAG-tagged RASSF and VENUS-tagged GTPase; lysis in 20 mM Tris-HCl pH 7.5, 150 mM NaCl, 5 mM MgCl2, 10% glycerol, 1% Triton X-100, 1 mM DTT; anti-FLAG on Protein G Sepharose 1 h, three washes; blot with anti-GFP
T1 sequence: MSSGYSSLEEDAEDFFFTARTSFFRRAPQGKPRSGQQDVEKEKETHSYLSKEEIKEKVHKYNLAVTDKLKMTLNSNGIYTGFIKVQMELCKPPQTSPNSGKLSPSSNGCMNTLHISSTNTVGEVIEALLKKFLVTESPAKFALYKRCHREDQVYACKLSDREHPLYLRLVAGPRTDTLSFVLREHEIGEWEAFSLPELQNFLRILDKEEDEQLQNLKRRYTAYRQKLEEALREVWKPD

[5] = target: T2, full-length FLAG-RASSF4 (human) (UniProt Q9H2L5); assay: as above
T2 sequence: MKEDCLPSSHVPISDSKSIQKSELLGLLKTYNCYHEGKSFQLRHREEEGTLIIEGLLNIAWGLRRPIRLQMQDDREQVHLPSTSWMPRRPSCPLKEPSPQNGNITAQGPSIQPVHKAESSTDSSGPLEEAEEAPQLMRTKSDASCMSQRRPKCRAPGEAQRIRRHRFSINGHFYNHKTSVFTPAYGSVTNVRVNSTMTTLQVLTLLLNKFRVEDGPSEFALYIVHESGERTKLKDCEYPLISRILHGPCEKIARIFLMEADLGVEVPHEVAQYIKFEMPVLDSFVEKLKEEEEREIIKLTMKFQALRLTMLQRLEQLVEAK

[6] = target: GST-tagged RASSF5 RA domain (human) (UniProt Q8WWW0); assay: pull-down; validation pull-downs (Fig. EV1C, Fig. 2A): recombinant purified GST-RASSF5 RA or GST alone with HEK 293T lysates expressing VENUS-tagged GTPases (activated, wild-type or dominant-negative variants); Western blot; only the target purified
[7] = target: GST-tagged RASSF8 RA domain (human) (UniProt Q8NHQ8); assay: pull-down; systematic screen: 2 µM purified GST-tagged RBD/RA domain (or GST alone) and glutathione beads incubated 30 min with HEK 293T lysate expressing a VENUS-tagged GTPase; Bio-Spin columns on a vacuum manifold, washed three times with lysis buffer (20 mM Tris-HCl pH 7.5, 150 mM NaCl, 5 mM MgCl2, 10% glycerol, 1% Triton X-100, 1% NP-40, 1 mM DTT); Western blot; GST-alone signal subtracted; heatmap from two replicates; only the target purified
[8] = target: GST-tagged RASSF3 RA domain (human) (UniProt Q86WH2); assay: as above
[9] = target: GST-tagged RASSF4 RA domain (human) (UniProt Q9H2L5); assay: as above
[10] = target: GST-tagged RASSF5 RA domain (human) (UniProt Q8WWW0); assay: as above
[11] = target: T3, full-length FLAG-RASSF8 (human) (UniProt Q8NHQ8); assay: co-IP; HEK 293T co-transfected with FLAG-tagged RASSF and VENUS-tagged GTPase; lysis in 20 mM Tris-HCl pH 7.5, 150 mM NaCl, 5 mM MgCl2, 10% glycerol, 1% Triton X-100, 1 mM DTT; anti-FLAG on Protein G Sepharose 1 h, three washes; blot with anti-GFP
T3 sequence: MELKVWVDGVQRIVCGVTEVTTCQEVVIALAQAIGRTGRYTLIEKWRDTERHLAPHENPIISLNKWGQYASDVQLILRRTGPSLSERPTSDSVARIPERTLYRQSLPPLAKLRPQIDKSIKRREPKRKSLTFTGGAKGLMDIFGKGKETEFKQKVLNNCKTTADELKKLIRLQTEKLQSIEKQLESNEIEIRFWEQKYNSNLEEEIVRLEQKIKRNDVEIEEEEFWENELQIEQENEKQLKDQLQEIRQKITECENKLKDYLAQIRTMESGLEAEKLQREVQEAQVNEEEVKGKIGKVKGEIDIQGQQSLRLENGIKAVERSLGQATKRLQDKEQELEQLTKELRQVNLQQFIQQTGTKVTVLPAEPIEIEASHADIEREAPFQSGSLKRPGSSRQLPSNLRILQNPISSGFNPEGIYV

- binding [1]: binds
- binding [3]: binds
Substance: 6xHis-MIRO1-nGTPase (1-180) (from UniProt Q8IXI2 1-180) (domain or fragment)
- binding [2]: no binding (tested: 50 µM 6xHis-GTPase with 10 µM GST-RA)

- binding [1]: binds
- binding [3]: binds
Substance: 6xHis-MIRO2-nGTPase (1-180) (from UniProt Q8IXI1 1-180) (domain or fragment)
- binding [2]: no binding (tested: 50 µM 6xHis-GTPase with 10 µM GST-RA)

- binding [4]: binds
- binding [5]: binds
Substance: VENUS-tagged MIRO1-nGTPase domain (human) (domain or fragment)

- binding [4]: binds
- binding [5]: binds
Substance: VENUS-tagged MIRO2-nGTPase domain (human) (domain or fragment)

- binding [6]: binds
Substance: VENUS-tagged RRAS S27N (from UniProt P10301)

- binding [7]: binds
Substance: VENUS-tagged, mutationally activated ARL3 (from UniProt P36405)

- binding [8]: binds
- binding [9]: binds
- binding [10]: binds weakly
- binding [7]: binds
Substance: VENUS-tagged, mutationally activated ARL4C (from UniProt P56559)

- binding [7]: binds
Substance: VENUS-tagged, mutationally activated ARL5B (from UniProt Q96KC2)

- binding [8]: binds
- binding [10]: binds
- binding [7]: binds
Substance: VENUS-tagged, mutationally activated ARL5C (from UniProt A6NH57)

- binding [7]: binds
Substance: VENUS-tagged, mutationally activated ARL10 (from UniProt Q8N8L6)

- binding [8]: binds
- binding [10]: binds weakly
- binding [7]: binds
Substance: VENUS-tagged, mutationally activated ARL11 (from UniProt Q969Q4)

- binding [7]: binds
Substance: VENUS-tagged, mutationally activated ARL13B (from UniProt Q3SXY8)

- binding [7]: binds
Substance: VENUS-tagged, mutationally activated ARL15 (from UniProt Q9NXU5)

- binding [9]: binds
Substance: VENUS-tagged, mutationally activated DIRAS1 (from UniProt O95057)

- binding [11]: binds
- binding [7]: binds
Substance: VENUS-tagged, mutationally activated GEM (from UniProt P55040)

- binding [5]: binds
- binding [11]: binds
- binding [9]: binds
- binding [7]: binds
Substance: VENUS-tagged, mutationally activated NKIRAS2 (from UniProt Q9NYR9)

- binding [4]: binds
- binding [11]: binds
- binding [8]: binds
- binding [7]: binds
Substance: VENUS-tagged, mutationally activated RASD2 (from UniProt Q96D21)

- binding [4]: binds
- binding [5]: binds
- binding [11]: binds
- binding [9]: binds
- binding [7]: binds
Substance: VENUS-tagged, mutationally activated RASL10A (from UniProt Q92737)

- binding [11]: binds
- binding [8]: binds
Substance: VENUS-tagged, mutationally activated RASL10B (from UniProt Q96S79)

- binding [11]: binds
- binding [7]: binds
Substance: VENUS-tagged, mutationally activated RASL12 (from UniProt Q9NYN1)

- binding [4]: binds
- binding [5]: binds
- binding [11]: binds
- binding [7]: binds
Substance: VENUS-tagged, mutationally activated REM1 (from UniProt O75628)

- binding [4]: binds
- binding [5]: binds
- binding [11]: binds
- binding [8]: binds
- binding [9]: binds
- binding [7]: binds
Substance: VENUS-tagged, mutationally activated REM2 (from UniProt Q8IYK8)

- binding [8]: binds
- binding [9]: binds
Substance: VENUS-tagged, mutationally activated RHOF (from UniProt Q9HBH0)

- binding [11]: binds
- binding [7]: binds
Substance: VENUS-tagged, mutationally activated RRAD (from UniProt P55042)
